No constants are given. Whether binding was seen depends on the method and setting. Binding seen in cells or lysates may run through a third protein. Here binding means that the protein was enriched with, or labelled near, the bait; the list need not be complete.
Molecular target: GST-hERK1 recombinant protein (human)
Assay: affinity purification with mass spectrometry; 1 µg GST-hERK1 or GST-null on GSH-agarose beads, 500 µg HeLa mitochondrial protein, 0.2% Triton X-100, 150 mM NaCl, 20 mM Tris-HCl pH 7.4, 1 mM EDTA, 1 mM EGTA, overnight at 4°C; SDS-PAGE, Coomassie, bands identified by MALDI-TOF-MS (histones also by LC-MS/MS); five independent pull-downs; only the target purified

B1: peroxiredoxin 3 (Prx3) (enzyme, UniProt P30048 62-256)
chain: APAVTQHAPYFKGTAVVNGEFKDLSLDDFKGKYLVLFFYPLDFTFVCPTEIVAFSDKANEFHDVNCEVVAVSVDSHFSHLAWINTPRKNGGLGHMNIALLSDLTKQISRDYGVLLEGSGLALRGLFIIDPNGVIKHLSVNDLPVGRSVEETLRLVKAFQYVETHGEVCPANWTPDSPTIKPSPAASKEYFQKVNQ
  binding: binds
